# Results from publication PMC8748556, “CXCR4 peptide-based fluorescence endoscopy in a mouse model of Barrett’s esophagus” (EJNMMI Research, 2022).
# Square brackets hold non-standard residues; d marks the D form. Side chains are listed from the residue outwards. Peptide text beside a SMILES is read from it. * marks the point of attachment. X1 = C[N+]1=C(C=CC=CC=C2N(CCCCCC(=O)*)c3ccc(S(=O)(=O)O)cc3C2(C)C)C(C)(C)c2cc(S(=O)(=O)[O-])ccc21; dTyr(3-I) = N[C@H](Cc1ccc(O)c(I)c1)C(=O)O; 2Nal = N[C@@H](Cc1ccc2ccccc2c1)C(=O)O; dNMeOrn = CN[C@H](CCCN)C(=O)O; 4Abz = Nc1ccc(C(=O)O)cc1; dDap = NC[C@@H](N)C(=O)O
# Test system: SCJ, squamous and glandular epithelium of L2-IL1B mice
# Format: in vivo, mouse
# Conditions: confocal microscopy, 40x fields, 60 nmol i.v., 4 h p.i.; mean ± SEM, n = 5
structure (smiles),measurement,value
C[C@@H](NC(=O)[C@@H](CCCNC(=N)N)NC(=O)[C@@H](CN)NC(=O)CCCCCN1C(=CC=CC=CC2=[N+](C)c3ccc(S(=O)(=O)[O-])cc3C2(C)C)C(C)(C)c2cc(S(=O)(=O)O)ccc21)C(=O)Nc1ccc(C(=O)NCCC[C@@H]2C(=O)N[C@@H](CCCNC(=N)N)C(=O)N[C@@H](Cc3ccc4ccccc4c3)C(=O)NCC(=O)N[C@H](Cc3ccc(O)c(I)c3)C(=O)N2C)cc1 [MK007] (cyclo([dTyr(3-I)][dNMeOrn]([4Abz-dA-dR-dDap-X1])R[2Nal]G)),Sulfo-Cy5 signal in SCJ (mean positive area),465.8 ± 89.19 pixels
same,Sulfo-Cy5 signal in glandular epithelium (mean positive area),272.8 ± 54.99 pixels
